No constants are given. Whether binding was seen depends on the method and setting. Binding seen in cells or lysates may run through a third protein. Some entries that bind do so weakly or less than the wild type.
Key:
FLAG-Smad2 (wildtype) = FLAG-Smad2 (wildtype) (UniProt Q15796); experiment: co-IP; FLAG-Smad2 and HA-PIAS plasmids transfected into HEK293T; IP with anti-FLAG from cell lysates, IB with anti-HA; overnight at 4 °C, protein A/G agarose
[1] = target: FLAG-Smad2 K156R/K383R (double SUMOylation site mutant) (UniProt Q15796); experiment: co-IP; wildtype or SUMO site mutant FLAG-Smad2, with or without SUMO1 overexpression, in HEK293T; IP with anti-FLAG from cell lysates, IB with anti-Smad4; overnight at 4 °C, protein A/G agarose

Sequences of proteins named here, by UniProt entry; tags and fusion partners are left off. A change or cut given only in a name is not applied to a line headed by its entry. A line that says so, or that is headed by a name, gives the form on record, which may keep a tag or linker.
UniProt Q15796: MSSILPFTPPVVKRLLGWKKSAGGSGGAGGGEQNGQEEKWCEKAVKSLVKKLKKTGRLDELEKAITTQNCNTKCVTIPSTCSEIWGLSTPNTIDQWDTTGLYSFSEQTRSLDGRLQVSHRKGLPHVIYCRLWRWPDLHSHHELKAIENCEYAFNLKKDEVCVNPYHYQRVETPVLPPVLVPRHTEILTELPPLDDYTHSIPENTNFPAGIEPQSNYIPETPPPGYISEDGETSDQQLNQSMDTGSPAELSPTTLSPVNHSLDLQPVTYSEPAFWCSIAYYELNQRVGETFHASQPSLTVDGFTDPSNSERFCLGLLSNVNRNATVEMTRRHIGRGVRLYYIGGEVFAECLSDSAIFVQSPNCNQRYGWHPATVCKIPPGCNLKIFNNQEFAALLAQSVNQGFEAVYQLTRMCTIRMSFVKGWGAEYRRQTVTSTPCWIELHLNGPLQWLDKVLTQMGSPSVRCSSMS
HA-PIAS2α (O75928-2, form named): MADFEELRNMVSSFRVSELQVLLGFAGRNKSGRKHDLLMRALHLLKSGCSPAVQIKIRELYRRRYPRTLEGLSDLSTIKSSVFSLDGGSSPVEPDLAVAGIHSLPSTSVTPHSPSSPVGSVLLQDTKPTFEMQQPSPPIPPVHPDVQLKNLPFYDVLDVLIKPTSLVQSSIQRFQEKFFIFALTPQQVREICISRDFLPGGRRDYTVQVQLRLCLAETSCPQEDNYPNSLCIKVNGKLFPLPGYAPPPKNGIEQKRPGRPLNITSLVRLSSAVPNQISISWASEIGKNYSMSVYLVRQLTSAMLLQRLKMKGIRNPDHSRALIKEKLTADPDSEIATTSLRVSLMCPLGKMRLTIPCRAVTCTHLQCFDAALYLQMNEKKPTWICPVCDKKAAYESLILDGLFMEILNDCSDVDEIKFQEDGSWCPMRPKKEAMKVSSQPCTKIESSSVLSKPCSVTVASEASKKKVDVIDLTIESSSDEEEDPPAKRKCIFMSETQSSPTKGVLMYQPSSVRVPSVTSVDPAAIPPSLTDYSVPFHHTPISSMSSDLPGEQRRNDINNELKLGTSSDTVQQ
UniProt Q13485: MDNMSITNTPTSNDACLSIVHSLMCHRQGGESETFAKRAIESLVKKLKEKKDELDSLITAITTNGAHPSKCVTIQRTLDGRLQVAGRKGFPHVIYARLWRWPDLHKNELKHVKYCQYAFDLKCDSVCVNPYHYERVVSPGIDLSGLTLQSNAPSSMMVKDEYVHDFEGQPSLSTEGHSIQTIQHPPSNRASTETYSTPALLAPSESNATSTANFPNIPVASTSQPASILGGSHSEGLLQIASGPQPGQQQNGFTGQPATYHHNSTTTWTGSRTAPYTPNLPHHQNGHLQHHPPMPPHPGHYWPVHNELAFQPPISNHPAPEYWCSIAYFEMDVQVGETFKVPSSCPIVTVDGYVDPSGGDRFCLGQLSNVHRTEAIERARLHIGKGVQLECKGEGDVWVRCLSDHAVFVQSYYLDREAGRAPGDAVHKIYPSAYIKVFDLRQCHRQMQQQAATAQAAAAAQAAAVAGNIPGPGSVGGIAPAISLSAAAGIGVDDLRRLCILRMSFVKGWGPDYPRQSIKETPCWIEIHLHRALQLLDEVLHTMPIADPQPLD

Row | binding (FLAG-Smad2 (wildtype)) | binding [1] | Substance
1 | binds |  | HA-PIAS2α (from UniProt O75928-2 1-572) (enzyme)
2 |  | binds | Smad4 (from UniProt Q13485 1-552)
